{
  "source": "paper PMC5597230",
  "about": "“Identification and characterization of preferred DNA-binding sites for the Thermus thermophilus transcriptional regulator FadR”",
  "note": "The exact form of at least one protein or probe is not confirmed. Protein sequences can lack the tags named with them.",
  "data": [
    {"target": "T1, FadR (Thermus thermophilus HB8) (UniProt Q5SM42)", "T1 sequence (looked up, limits assumed)": "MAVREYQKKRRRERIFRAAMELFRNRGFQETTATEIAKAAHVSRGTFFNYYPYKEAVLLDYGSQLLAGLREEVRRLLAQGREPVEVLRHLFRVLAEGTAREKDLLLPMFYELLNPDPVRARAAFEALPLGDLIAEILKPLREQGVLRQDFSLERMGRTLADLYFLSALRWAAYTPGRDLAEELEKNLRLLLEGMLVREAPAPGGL", "test": "EMSA", "conditions": "FadR titrations up to 600 nM, IRD700-labeled probes; recombinant protein; label: IRD700", "units": {"Kd": "nM"}, "values": [
      {"sequence": "AGGAATTCGTGCAGAGGTGAATTGGGACTTAGTCCAATTACCATCCCTCCAGAAGCTTGG (double strand) [ST2_FadR_R5_m2]", "Kd": "> 300"},
      {"sequence": "AGGAATTCGTGCAGAGGTGAATTTGGAATTAGTCCAATTACCATCCCTCCAGAAGCTTGG (double strand) [ST2_FadR_R5_m6]", "Kd": "> 300"},
      {"sequence": "AGGAATTCGTGCAGAGGTGAATTTTGACTGAGTATAATTACCATCCCTCCAGAAGCTTGG (double strand) [ST2_FadR_TTHA0890]", "Kd": 2.6}
    ]}
  ]
}
